# Data: the supplement of paper PMC12067093, “Discovery and optimisation of a covalent ligand for TRIM25 and its application to targeted protein ubiquitination” (Chemical Science, 2025)
# Amino acid sequences for entries named in this document (tags omitted). A change or cut given only in a name is not applied to a line headed by its entry.
# UniProt P38398, whole entry, looked up: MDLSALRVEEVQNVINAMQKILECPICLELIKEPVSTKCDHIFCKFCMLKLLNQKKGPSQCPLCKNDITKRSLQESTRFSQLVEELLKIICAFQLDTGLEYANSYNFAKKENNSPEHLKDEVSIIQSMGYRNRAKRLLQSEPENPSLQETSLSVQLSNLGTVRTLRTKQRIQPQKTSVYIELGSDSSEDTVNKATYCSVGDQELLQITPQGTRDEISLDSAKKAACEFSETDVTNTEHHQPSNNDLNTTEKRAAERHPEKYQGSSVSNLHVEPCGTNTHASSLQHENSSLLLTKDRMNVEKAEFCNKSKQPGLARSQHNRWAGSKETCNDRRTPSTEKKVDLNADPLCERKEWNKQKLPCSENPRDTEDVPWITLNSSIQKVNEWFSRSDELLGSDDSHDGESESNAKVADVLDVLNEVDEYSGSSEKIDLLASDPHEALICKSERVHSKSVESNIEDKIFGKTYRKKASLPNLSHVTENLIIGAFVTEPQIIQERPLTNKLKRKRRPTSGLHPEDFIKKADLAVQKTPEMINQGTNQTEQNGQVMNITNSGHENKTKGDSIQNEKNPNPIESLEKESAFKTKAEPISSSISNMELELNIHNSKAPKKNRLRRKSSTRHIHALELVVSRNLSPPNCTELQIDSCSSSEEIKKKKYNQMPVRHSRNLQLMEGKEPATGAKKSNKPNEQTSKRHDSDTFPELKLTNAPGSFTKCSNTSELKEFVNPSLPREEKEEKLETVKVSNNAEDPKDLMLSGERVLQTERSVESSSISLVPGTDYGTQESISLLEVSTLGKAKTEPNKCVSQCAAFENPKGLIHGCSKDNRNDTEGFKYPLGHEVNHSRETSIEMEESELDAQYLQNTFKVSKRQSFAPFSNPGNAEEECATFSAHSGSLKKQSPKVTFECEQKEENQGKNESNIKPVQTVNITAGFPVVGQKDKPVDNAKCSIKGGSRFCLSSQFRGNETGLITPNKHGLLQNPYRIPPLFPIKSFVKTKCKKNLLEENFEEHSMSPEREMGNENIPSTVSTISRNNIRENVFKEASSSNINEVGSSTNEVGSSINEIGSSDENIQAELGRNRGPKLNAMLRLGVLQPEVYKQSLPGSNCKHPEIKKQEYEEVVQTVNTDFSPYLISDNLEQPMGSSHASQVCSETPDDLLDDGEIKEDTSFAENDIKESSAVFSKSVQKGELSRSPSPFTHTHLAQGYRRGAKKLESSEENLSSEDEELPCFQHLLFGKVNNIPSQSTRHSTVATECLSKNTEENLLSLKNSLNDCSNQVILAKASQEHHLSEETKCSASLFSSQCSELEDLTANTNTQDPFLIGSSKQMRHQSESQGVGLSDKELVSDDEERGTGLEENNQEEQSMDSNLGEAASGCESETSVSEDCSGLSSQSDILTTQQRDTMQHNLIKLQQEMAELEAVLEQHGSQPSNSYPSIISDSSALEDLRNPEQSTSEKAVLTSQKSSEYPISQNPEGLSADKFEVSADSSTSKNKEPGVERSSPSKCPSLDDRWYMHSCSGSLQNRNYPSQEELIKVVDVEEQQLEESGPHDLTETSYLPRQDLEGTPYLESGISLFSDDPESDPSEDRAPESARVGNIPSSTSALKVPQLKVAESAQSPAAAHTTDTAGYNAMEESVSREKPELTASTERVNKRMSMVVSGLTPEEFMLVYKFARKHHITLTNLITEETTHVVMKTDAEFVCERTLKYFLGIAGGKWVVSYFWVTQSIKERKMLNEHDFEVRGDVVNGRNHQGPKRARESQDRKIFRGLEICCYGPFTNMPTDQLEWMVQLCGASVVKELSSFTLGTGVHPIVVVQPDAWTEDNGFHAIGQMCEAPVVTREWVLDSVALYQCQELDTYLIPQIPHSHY
# UniProt Q9Y376: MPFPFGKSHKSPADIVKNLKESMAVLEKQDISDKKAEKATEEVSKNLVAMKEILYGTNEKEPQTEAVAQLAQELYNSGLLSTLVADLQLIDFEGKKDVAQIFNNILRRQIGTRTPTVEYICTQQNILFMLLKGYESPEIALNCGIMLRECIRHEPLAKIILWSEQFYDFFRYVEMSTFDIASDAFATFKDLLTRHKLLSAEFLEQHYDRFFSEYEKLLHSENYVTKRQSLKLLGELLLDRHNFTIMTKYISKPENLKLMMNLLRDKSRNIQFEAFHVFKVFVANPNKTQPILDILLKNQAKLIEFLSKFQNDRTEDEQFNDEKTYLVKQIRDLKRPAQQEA
# UniProt Q9NQ89: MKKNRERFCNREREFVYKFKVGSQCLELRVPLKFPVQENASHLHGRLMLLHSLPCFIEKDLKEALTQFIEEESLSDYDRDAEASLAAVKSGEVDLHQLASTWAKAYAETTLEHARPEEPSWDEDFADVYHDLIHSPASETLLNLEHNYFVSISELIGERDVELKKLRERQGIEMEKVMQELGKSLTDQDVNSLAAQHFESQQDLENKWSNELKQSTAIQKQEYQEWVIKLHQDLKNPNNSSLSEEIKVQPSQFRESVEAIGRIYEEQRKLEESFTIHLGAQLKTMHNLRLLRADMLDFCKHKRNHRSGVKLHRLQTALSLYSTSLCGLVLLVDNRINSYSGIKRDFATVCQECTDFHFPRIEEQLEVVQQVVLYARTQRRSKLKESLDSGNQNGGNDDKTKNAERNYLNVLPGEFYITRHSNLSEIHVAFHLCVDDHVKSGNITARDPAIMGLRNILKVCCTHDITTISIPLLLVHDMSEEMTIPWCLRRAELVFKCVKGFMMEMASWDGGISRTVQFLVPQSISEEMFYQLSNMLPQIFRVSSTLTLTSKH
# UniProt Q8N999, whole entry, looked up: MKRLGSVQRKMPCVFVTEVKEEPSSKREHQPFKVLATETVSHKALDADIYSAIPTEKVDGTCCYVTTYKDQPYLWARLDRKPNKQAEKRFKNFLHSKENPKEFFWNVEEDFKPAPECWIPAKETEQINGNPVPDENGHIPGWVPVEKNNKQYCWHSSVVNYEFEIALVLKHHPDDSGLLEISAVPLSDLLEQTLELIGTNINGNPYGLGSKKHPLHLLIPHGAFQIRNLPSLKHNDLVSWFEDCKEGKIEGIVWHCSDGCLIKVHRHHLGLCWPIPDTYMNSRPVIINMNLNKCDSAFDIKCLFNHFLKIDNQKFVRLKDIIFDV
# UniProt Q9HB71, whole entry, looked up: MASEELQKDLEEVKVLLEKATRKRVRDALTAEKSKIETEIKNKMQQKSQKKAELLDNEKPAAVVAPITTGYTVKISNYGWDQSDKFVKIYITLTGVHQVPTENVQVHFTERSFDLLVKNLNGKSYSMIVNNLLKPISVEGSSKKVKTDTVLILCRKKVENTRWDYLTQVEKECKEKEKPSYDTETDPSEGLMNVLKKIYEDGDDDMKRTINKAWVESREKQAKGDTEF
# UniProt Q9HAS0: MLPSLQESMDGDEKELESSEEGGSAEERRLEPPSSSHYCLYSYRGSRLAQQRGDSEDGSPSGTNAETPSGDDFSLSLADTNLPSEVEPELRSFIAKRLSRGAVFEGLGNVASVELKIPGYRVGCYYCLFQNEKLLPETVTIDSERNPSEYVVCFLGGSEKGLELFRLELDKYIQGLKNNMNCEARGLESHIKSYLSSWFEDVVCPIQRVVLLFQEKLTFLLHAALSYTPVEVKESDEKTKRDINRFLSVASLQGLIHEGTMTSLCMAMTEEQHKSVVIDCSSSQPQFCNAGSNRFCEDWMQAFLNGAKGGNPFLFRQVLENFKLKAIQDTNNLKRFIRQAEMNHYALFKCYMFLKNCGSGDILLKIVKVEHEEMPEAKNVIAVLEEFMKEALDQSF
# UniProt Q86VP6: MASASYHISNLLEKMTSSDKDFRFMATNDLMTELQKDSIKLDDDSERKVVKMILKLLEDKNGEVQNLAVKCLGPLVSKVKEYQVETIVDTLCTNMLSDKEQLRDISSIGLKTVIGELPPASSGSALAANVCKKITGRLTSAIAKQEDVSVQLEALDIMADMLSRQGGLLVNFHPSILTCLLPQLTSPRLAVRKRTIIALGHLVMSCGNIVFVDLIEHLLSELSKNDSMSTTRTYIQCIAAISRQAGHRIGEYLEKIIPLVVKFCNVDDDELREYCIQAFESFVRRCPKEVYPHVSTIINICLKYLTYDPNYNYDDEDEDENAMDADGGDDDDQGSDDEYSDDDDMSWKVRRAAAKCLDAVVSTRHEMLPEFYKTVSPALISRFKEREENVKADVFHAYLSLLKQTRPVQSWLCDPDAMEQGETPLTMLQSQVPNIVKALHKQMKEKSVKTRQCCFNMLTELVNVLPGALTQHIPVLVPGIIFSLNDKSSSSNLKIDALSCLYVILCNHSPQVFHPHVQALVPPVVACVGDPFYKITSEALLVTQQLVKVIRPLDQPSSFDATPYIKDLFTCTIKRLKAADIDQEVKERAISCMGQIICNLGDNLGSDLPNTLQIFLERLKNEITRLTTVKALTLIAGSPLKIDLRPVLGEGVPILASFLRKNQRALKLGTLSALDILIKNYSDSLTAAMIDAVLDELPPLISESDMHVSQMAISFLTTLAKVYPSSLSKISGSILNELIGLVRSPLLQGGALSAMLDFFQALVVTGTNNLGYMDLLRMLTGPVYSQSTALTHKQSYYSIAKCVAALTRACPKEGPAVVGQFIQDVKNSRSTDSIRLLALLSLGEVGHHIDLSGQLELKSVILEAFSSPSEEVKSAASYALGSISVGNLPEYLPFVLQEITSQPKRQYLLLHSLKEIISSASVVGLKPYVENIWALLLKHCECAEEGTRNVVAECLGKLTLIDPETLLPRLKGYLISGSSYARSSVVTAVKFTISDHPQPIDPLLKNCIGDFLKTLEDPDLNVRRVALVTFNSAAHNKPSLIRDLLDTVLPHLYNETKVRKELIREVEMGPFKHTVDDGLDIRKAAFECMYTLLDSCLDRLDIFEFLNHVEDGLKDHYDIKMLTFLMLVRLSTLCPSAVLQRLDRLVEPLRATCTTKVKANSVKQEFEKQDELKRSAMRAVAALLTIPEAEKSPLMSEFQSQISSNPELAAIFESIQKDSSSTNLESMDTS
# UniProt P27824: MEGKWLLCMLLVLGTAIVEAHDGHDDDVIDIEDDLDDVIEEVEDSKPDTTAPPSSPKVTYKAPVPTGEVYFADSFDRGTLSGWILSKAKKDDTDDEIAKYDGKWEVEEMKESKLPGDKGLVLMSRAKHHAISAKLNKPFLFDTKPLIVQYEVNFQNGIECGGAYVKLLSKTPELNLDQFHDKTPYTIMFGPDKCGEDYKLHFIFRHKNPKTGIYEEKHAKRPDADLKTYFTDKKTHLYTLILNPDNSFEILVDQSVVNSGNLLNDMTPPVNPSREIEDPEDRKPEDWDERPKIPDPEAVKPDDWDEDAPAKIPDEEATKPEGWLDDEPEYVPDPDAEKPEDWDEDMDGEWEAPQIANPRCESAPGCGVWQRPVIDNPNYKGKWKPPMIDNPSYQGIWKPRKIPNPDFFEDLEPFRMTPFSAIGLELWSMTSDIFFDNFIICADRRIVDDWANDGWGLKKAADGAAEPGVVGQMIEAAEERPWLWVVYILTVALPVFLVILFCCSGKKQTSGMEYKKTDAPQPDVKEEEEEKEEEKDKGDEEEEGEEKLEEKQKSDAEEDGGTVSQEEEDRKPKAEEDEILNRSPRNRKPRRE
# UniProt Q10588: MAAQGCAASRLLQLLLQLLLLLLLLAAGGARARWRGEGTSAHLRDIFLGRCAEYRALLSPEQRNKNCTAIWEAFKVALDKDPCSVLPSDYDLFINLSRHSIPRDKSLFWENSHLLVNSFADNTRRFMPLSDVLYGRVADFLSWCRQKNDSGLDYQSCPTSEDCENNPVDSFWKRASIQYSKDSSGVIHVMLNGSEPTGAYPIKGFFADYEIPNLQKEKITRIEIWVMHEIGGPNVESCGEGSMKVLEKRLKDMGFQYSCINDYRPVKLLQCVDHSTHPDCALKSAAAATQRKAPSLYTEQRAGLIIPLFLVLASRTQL
# The other results are listed elsewhere or left out.
# Compound: Cc1cc(ccc1-c1ccccc1)C(=O)N1CCCN(CC1)C(=O)CCl [compound 10]
# Assay: probe-labelled cysteine peptide fold change vs DMSO (competition) (log2 fold change); higher = less target engagement (more negative = stronger competition)
# Conditions: THP-1, incubation time: 4 h
# 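Note: competitive profiling in live THP-1 cells: cysteine peptides tagged with an iodoacetamide desthiobiotin (IA-DTB) probe, intensity after compound treatment relative to DMSO-treated cells.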
Target,probe-labelled cysteine peptide fold change (10 µM),probe-labelled cysteine peptide fold change (50 µM)
BRCA1_P38398_226_AACEFSETDVTNTEHHQPSNNDLNTTEK (UniProt P38398),0.0383,0.015
CAB39_Q9Y376_121_TPTVEYICTQQNILFMLLK (UniProt Q9Y376),0.245,0.48
C12orf4_Q9NQ89_350_DFATVCQECTDFHFPR (UniProt Q9NQ89),-0.276,0.0937
C12orf29_Q8N999_117_EFFWNVEEDFKPAPECWIPAK (UniProt Q8N999),-0.0646,-0.183
CACYBP_Q9HB71_154_VKTDTVLILCR (UniProt Q9HB71),-0.0671,-0.417
BRCA1_P38398_1513_WYMHSCSGSLQNR (UniProt P38398),-0.077,-0.201
C17orf75_Q9HAS0_182_NNMNCEAR (UniProt Q9HAS0),-0.303,-0.523
CAND1_Q86VP6_571_DLFTCTIKR (UniProt Q86VP6),-0.0714,-0.4
CAD_P27708_1501_EDFASGTAAALAGGITMVCAMPNTRPPIIDAPALALAQK (UniProt P27708),0.436,0.195
CAND1_Q86VP6_802_CVAALTR (UniProt Q86VP6),0.211,-0.156
C12orf4_Q9NQ89_55_LMLLHSLPCFIEK (UniProt Q9NQ89),-0.0861,-0.613
CANX_P27824_360+366_CESAPGCGVWQR (UniProt P27824),0.0445,0.401
BST1_Q10588_83_VALDKDPCSVLPSDYDLFINLSR (UniProt Q10588),-0.187,-0.386
BRWD3_Q6RI45_202_IFTGSDDCLVK (UniProt Q6RI45),0.159,0.182
